Laboratory results from PMC7229837, “Molecular architecture of the DNA-binding sites of the P-loop ATPases MipZ and ParA from Caulobacter crescentus”.
Substitutions are numbered along the chain they refer to. The exact form of at least one protein or probe is not confirmed. For some of these results: A weaker result is weaker than the reference pair of the same experiment. At least one verdict was read from the data and is not stated in words by the source. Where a protein sequence is shown, tags need not be part of it.

Columns and labels:
Test in all cases: BLI
[1] = molecular target: T1, MipZ WT (Caulobacter crescentus) (UniProt Q9A6C9); settings: 1 mM ATPgS, no preference for GC-rich DNA, BLI: 50 mM HEPES/NaOH pH 7.2, 50 mM NaCl, 5 mM MgCl2, 0.1 mM EDTA, 10% glycerol, recombinant protein, protein details: C-terminal His6 (pET21a), label: biotin (5') on strand 1
T1 sequence (looked up, limits assumed): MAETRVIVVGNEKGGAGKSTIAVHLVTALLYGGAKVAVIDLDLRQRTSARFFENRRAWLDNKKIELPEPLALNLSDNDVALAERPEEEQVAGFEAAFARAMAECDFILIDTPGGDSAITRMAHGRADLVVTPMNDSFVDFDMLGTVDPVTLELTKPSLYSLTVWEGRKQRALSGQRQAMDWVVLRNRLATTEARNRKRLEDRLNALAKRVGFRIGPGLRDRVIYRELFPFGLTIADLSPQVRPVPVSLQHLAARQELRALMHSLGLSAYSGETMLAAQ

[2] = molecular target: T2, MipZ R221A (Caulobacter crescentus) (UniProt Q9A6C9); settings: 1 mM ATPgS, BLI: 50 mM HEPES/NaOH pH 7.2, 50 mM NaCl, 5 mM MgCl2, 0.1 mM EDTA, 10% glycerol, recombinant protein, protein details: C-terminal His6 (pET21a), label: biotin (5') on strand 1
T2 sequence (looked up, limits assumed): T1 sequence (looked up, limits assumed) with R221A

[3] = molecular target: T3, MipZ R219A (Caulobacter crescentus) (UniProt Q9A6C9); settings: 1 mM ATPgS, BLI: 50 mM HEPES/NaOH pH 7.2, 50 mM NaCl, 5 mM MgCl2, 0.1 mM EDTA, 10% glycerol, recombinant protein, protein details: C-terminal His6 (pET21a), label: biotin (5') on strand 1
T3 sequence (looked up, limits assumed): T1 sequence (looked up, limits assumed) with R219A

[4] = molecular target: T4, MipZ L237A (Caulobacter crescentus) (UniProt Q9A6C9); settings: 1 mM ATPgS, BLI: 50 mM HEPES/NaOH pH 7.2, 50 mM NaCl, 5 mM MgCl2, 0.1 mM EDTA, 10% glycerol, recombinant protein, protein details: C-terminal His6 (pET21a), label: biotin (5') on strand 1
T4 sequence (looked up, limits assumed): T1 sequence (looked up, limits assumed) with L237A

[5] = molecular target: T5, MipZ R198A (Caulobacter crescentus) (UniProt Q9A6C9); settings: 1 mM ATPgS, BLI: 50 mM HEPES/NaOH pH 7.2, 50 mM NaCl, 5 mM MgCl2, 0.1 mM EDTA, 10% glycerol, recombinant protein, protein details: C-terminal His6 (pET21a), label: biotin (5') on strand 1
T5 sequence (looked up, limits assumed): T1 sequence (looked up, limits assumed) with R198A

[6] = molecular target: T6, MipZ K197A (Caulobacter crescentus) (UniProt Q9A6C9); settings: 1 mM ATPgS, BLI: 50 mM HEPES/NaOH pH 7.2, 50 mM NaCl, 5 mM MgCl2, 0.1 mM EDTA, 10% glycerol, recombinant protein, protein details: C-terminal His6 (pET21a), label: biotin (5') on strand 1
T6 sequence (looked up, limits assumed): T1 sequence (looked up, limits assumed) with K197A

[7] = molecular target: T7, MipZ R242A (Caulobacter crescentus) (UniProt Q9A6C9); settings: 1 mM ATPgS, BLI: 50 mM HEPES/NaOH pH 7.2, 50 mM NaCl, 5 mM MgCl2, 0.1 mM EDTA, 10% glycerol, recombinant protein, protein details: C-terminal His6 (pET21a), label: biotin (5') on strand 1
T7 sequence (looked up, limits assumed): T1 sequence (looked up, limits assumed) with R242A

[8] = molecular target: T8, MipZ K13A (Caulobacter crescentus) (UniProt Q9A6C9); settings: 1 mM ATPgS, BLI: 50 mM HEPES/NaOH pH 7.2, 50 mM NaCl, 5 mM MgCl2, 0.1 mM EDTA, 10% glycerol, recombinant protein, protein details: C-terminal His6 (pET21a), label: biotin (5') on strand 1
T8 sequence (looked up, limits assumed): T1 sequence (looked up, limits assumed) with K13A

[9] = molecular target: T9, MipZ R196A (Caulobacter crescentus) (UniProt Q9A6C9); settings: 1 mM ATPgS, BLI: 50 mM HEPES/NaOH pH 7.2, 50 mM NaCl, 5 mM MgCl2, 0.1 mM EDTA, 10% glycerol, recombinant protein, protein details: C-terminal His6 (pET21a), label: biotin (5') on strand 1
T9 sequence (looked up, limits assumed): T1 sequence (looked up, limits assumed) with R196A

[10] = molecular target: T10, MipZ R194A (Caulobacter crescentus) (UniProt Q9A6C9); settings: 1 mM ATPgS, BLI: 50 mM HEPES/NaOH pH 7.2, 50 mM NaCl, 5 mM MgCl2, 0.1 mM EDTA, 10% glycerol, recombinant protein, protein details: C-terminal His6 (pET21a), label: biotin (5') on strand 1
T10 sequence (looked up, limits assumed): T1 sequence (looked up, limits assumed) with R194A

[11] = molecular target: T11, MipZ L248A (Caulobacter crescentus) (UniProt Q9A6C9); settings: 1 mM ATPgS, BLI: 50 mM HEPES/NaOH pH 7.2, 50 mM NaCl, 5 mM MgCl2, 0.1 mM EDTA, 10% glycerol, recombinant protein, protein details: C-terminal His6 (pET21a), label: biotin (5') on strand 1
T11 sequence (looked up, limits assumed): T1 sequence (looked up, limits assumed) with L248A

“AATAAATAAGAATAGTAAAAGTAAAGAAAG (double strand) [ATrich-biotin/ATrich-rev (17% GC)]”: binds [1].
“CATACGAGGTCGAGATGC (double strand) [GC56-biotin/GC56-rev (56% GC)]”: binds [1].
“GAGGCAGACTAGATCTTCTAGTTCGG (double strand) [rand-biotin/rand-rev 26 bp]”: binds more weakly [2]; binds more weakly [3]; binds more weakly [4]. “GAGGCAGACTAGATCTTCTAGTTCGG (double strand) [rand-biotin/rand-rev 26 bp]”: binds more weakly [5]; binds more weakly [6]; binds more weakly [7]. “GAGGCAGACTAGATCTTCTAGTTCGG (double strand) [rand-biotin/rand-rev 26 bp]”: binds more weakly [8]; binds more weakly [9]; binds more weakly [10]. “GAGGCAGACTAGATCTTCTAGTTCGG (double strand) [rand-biotin/rand-rev 26 bp]”: binds more weakly [11].
“GCGCCCTGTTCGCCCCGCT (double strand) [GCrich-biotin/GCrich-rev (79% GC)]”: binds [1].
